Measured values taken from PubChem BioAssay AID1558 (National Center for Advancing Translational Sciences (NCATS), 2009).
Where “and” joins values, the source holds several entries; their conditions need not be identical. Equal values may be shown once. This list was built around the results that the source calls inconclusive (neither active nor inactive); the mix of calls is not that of the screen. Where the call is inconclusive, the potency comes from a doubtful curve fit. Calls of active or inactive are those of the source. The call rests on the fitted dose curve; in most records, active means well fitted inhibition curve with a large enough effect; inconclusive means small, poorly fitted or top-dose-only effect; inactive means flat fitted curve, though single readings scatter.

Amino acid sequences for entries named in this document (tags omitted). Residues count along the entry.
UniProt P10636, 561-689 P618L limits assumed: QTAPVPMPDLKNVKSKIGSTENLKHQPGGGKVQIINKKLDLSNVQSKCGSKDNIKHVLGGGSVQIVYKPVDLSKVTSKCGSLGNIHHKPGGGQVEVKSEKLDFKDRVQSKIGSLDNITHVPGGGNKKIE
UniProt P10636, whole entry, looked up: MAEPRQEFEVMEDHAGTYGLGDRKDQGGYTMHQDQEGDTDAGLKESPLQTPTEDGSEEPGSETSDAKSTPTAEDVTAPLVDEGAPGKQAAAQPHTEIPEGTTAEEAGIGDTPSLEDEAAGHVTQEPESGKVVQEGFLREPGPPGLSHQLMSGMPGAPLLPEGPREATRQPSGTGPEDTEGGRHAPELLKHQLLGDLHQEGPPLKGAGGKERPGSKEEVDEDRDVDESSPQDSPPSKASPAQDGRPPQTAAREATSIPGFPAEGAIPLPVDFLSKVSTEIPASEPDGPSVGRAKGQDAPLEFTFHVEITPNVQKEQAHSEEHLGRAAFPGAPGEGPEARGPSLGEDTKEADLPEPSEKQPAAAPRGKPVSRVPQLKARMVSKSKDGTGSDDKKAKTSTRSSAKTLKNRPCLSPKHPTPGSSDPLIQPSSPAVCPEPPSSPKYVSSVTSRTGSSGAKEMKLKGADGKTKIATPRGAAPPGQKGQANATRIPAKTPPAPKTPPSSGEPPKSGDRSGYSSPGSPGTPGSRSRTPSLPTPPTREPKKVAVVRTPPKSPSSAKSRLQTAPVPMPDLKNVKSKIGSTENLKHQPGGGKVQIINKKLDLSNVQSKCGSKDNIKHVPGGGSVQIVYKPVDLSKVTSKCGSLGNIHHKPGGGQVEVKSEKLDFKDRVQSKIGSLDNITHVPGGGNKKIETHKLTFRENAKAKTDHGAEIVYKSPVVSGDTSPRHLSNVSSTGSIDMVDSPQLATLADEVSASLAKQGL

These compounds were tested against Microtubule-associated protein tau (Homo sapiens) (UniProt P10636) (assay: Confirmation Concentration-Response Assay for Inhibitors of Tau Fibril Formation, Thioflavin T Binding). Conditions: recombinant tau K18 P301L (four-repeat tau fragment) heparin fibrillization, ThT fluorescence; series mostly up to 100 µM.
Description: NIH Molecular Libraries Probe Production Network [MLPCN] NIH Chemical Genomics Center [NCGC] MLPCN Grant: X01 MH083262-01 Assay Provider: Carlo Ballatore, University of Pennsylvania NCGC Assay Overview: The microtubule-associated protein tau is an abundant protein in the axons of neurons that stabilizes microtubules. With its ability to modulate microtubule dynamics, tau contributes directly or indirectly, to key structural and regulatory cellular functions. Particularly important is the influence tau exerts on axonal transport, which allows signaling molecules, trophic factors and other essential cellular constituents to travel along the axons. Under pathological conditions, tau becomes sequestered into insoluble aggregates called neurofibrillary tangles. This phenomenon is believed to have pathological consequences by promoting axonal transport deficits that ultimately lead to synaptic dysfunction and neuronal loss. To identify inhibitors of tau aggregation, a heparin-induced tau fibril formation assay was used that employed a recombinantly expressed fragment of tau, K18 (Q242-E372), bearing a P301L mutation (Gustke et al. 1994; Hong et al. 1998). This assay monitors tau fibrillization by Thioflavin T (ThT) fluorescence. Gustke, N., B. Trinczek, et al. (1994). "Domains of tau protein and interactions with microtubules." Biochemistry 33(32): 9511-22. Hong, M., V. Zhukareva, et al. (1998). "Mutation-specific functional impairments in distinct tau isoforms of hereditary FTDP-17." Science 282(5395): 1914-7. Li, W. and V. M. Lee (2006). "Characterization of two VQIXXK motifs for tau fibrillization in vitro." Biochemistry 45(51): 15692-701. von Bergen, M., S. Barghorn, et al. (2001). "Mutations of tau protein in frontotemporal dementia promote aggregation of paired helical filaments by enhancing local beta-structure." J Biol Chem 276(51): 48165-74.
For screening, 2 uL/well human K18 P301L (15 uM unlabeled and 0.24 uM Alexa 594-labeled tau, final concentrations) in reagent buffer (100 mM sodium acetate pH 7) was dispensed into black solid 1536-well plates (Grenier) using a solenoid-based dispenser. Following transfer of 23 nL compound or DMSO vehicle by a pin tool, 2 uL/well heparin (20 uM final concentration) in reagent buffer was added and the plate centrifuged 15 s at 1000 RPM. Plates were incubated 6 hr at 37 C and then 1 uL/well ThT (30 uM final concentration) was added. After a 1 hr ambient incubation, the plates were read by an Envision (Perkin Elmer) to monitor ThT fluorescence (450/8 nm excitation and 510/23 nm emission). Keywords: NIH Roadmap, MLPCN, MLI, MLSMR, NCGC, qHTS, tau, tauopathies, Alzheimer's disease, fibril, neurodegeneration, aggregation

Q: With `CCc1ccc(S(=O)(=O)Nc2cc(SCC(=O)O)c(O)c3ccccc23)cc1` as the compound, how does the Potency read?
A: The Potency was active: 5.62 µM.

Q: `CCOC(=O)c1nn(-c2ccccc2F)c(=O)c2c(N)scc12` was tested. Which Potency did it give?
A: The Potency was inconclusive: 3.98 µM [inhibitor, full curve].

Q: For `CCOC(=O)c1ccc(-n2nc(C(=O)OCC)c3csc(N)c3c2=O)cc1`, which Potency is on record?
A: The Potency was inconclusive: 2.51 µM [inhibitor, full curve].

Q: How did the Potency turn out when `O=C(CSc1nc2scc(-c3ccco3)c2c(=O)n1-c1ccccc1)N1CCOCC1` was run?
A: Its Potency is inconclusive: 2.82 µM [inhibitor, full curve, poor fit].

Q: Which Potency does the source give for `COc1ncc(-c2ccccc2)cc1N` here?
A: Its Potency is inconclusive: 35.5 µM [inhibitor, partial curve, poor fit].

Q: Which Potency does the source give for `Cc1ccc(-c2ccc(/C=N/N=C3/NC(=O)C(CC(=O)O)S3)o2)c([N+](=O)[O-])c1` (stereo not given) here?
A: Its Potency is inconclusive: 44.7 µM [inhibitor, partial curve, poor fit].

Q: `NC(=O)c1nn(-c2ccccc2)c(=O)c2c(N)scc12` was tested. Which Potency did it give?
A: The Potency was active: 4.47 µM.

Q: For `CCOC(=O)N1CCN(C(=O)CN2C(=O)/C(=C\c3cccc(OC)c3)SC2=S)CC1`, which Potency is on record?
A: The Potency was inconclusive: 20 µM [inhibitor, partial curve, poor fit].

Q: How did the Potency turn out when `Cc1ccc(NCc2cc3cc4c(cc3n(CC(=O)Nc3ccc(C)cc3)c2=O)OCCO4)cc1` was run?
A: Its Potency is “inactive”.

Q: How did the Potency turn out when `Oc1ccccc1CNc1cccc2cccnc12` was run?
A: The Potency was active: 39.8 µM.

Q: How did the Potency turn out when `Cc1ccc(SCc2cc(=O)n(C)[nH]2)cc1` was run?
A: The Potency was inconclusive: 14.1 µM [inhibitor, partial curve, poor fit].

Q: With `COc1ccc(NC(=O)C2CCN(S(=O)(=O)c3c(C)noc3/C=C/c3cccs3)CC2)cc1Cl` as the compound, how does the Potency read?
A: The Potency was “inactive”.

Q: For `COc1ccc(OC)c(NC(=O)c2c(NCc3cccs3)sc3c2CCCC3)c1`, which Potency is on record?
A: Its Potency is “inactive”.

Q: With `CC(C)(C)c1ccc(NC(=O)N2CCN(c3ccc([N+](=O)[O-])cn3)CC2)cc1` as the compound, how does the Potency read?
A: The Potency was inconclusive: 7.94 µM [inhibitor, partial curve, poor fit].

Q: Which Potency does the source give for `CCOC(=O)c1nn(-c2ccccc2)c(=O)c2c(N)scc12` here?
A: The Potency was active: 3.98 µM and active: 7.94 µM.

Q: How did the Potency turn out when `CC(C)C(C)NC(=O)CSc1nc2scc(-c3ccco3)c2c(=O)n1-c1ccccc1` (stereo not given) was run?
A: The Potency was inconclusive: 56.2 µM [inhibitor, full curve, poor fit].

Q: With `Nc1ccc(-c2ccc3ccccc3n2)cc1` as the compound, how does the Potency read?
A: Its Potency is inconclusive: 31.6 µM [inhibitor, full curve, poor fit].

Q: How did the Potency turn out when `Cc1cc2c(N)cccc2nn1` was run?
A: Its Potency is inconclusive: 14.1 µM [inhibitor, full curve, poor fit].

Q: For `CC(C)c1ccc(NS(=O)(=O)c2ccc3[nH]cc(C(=O)NCCc4ccccc4)c(=O)c3c2)cc1`, which Potency is on record?
A: The Potency was “inactive”.

Q: Which Potency does the source give for `Nc1c(-c2ccccc2)cc[nH]c1=O` here?
A: Its Potency is inconclusive: 8.91 µM [inhibitor, full curve, poor fit].

Q: With `O=C(Nc1ccc(OC(F)(F)F)cc1)Nc1cccc([N+](=O)[O-])c1` as the compound, how does the Potency read?
A: Its Potency is inconclusive: 28.2 µM [inhibitor, partial curve, poor fit].

Q: How did the Potency turn out when `CN(C)S(=O)(=O)c1cccc(N=C2NN=C(c3ccccc3)CS2)c1` was run?
A: Its Potency is inconclusive: 11.2 µM [inhibitor, full curve, poor fit].

Q: Which Potency does the source give for `COc1ccc(-n2nc(C(=O)O)c3csc(N)c3c2=O)cc1` here?
A: Its Potency is active: 1 µM.

Q: Which Potency does the source give for `CCn1nccc1C(=O)Nc1cc(Cl)cc(Cl)c1` here?
A: Its Potency is “inactive”.

Q: `CCOC(=O)c1nn(-c2ccccc2)c(=O)c2c(NC(C)=O)scc12` was tested. Which Potency did it give?
A: Its Potency is inconclusive: 22.4 µM [inhibitor, single point].

Q: How did the Potency turn out when `COC(=O)C1CCc2sc(N)c(C(=O)OCc3ccccc3)c21` (stereo not given) was run?
A: The Potency was “inactive”.

Q: Which Potency does the source give for `CN1CCc2sc(NC(=O)Cc3ccccc3)c(C(=O)Nc3ccc(Cl)cc3)c2C1` here?
A: The Potency was inconclusive: 39.8 µM [inhibitor, partial curve].

Q: For `CN(C)C(=O)c1ccc(-c2cc[nH]c(=O)c2N)cc1`, which Potency is on record?
A: Its Potency is inconclusive: 35.5 µM [inhibitor, partial curve, poor fit].

Q: How did the Potency turn out when `CCN(CC)C(=O)c1nn(-c2ccc(OC)cc2)c(=O)c2c(N)scc12` was run?
A: Its Potency is active: 10 µM.

Q: `Cc1ccc(S(=O)(=O)N(C)c2nc3ccccc3[nH]c2=S)cc1` was tested. Which Potency did it give?
A: Its Potency is inconclusive: 15.8 µM [inhibitor, full curve, poor fit].

Q: With `CC1CCc2c(sc(NC(=O)Cc3ccccc3)c2C(=O)Nc2ccc(Cl)cc2)C1` (stereo not given) as the compound, how does the Potency read?
A: The Potency was “inactive”.

Q: For `COc1ccc2[nH]c(=O)c(CNc3ccccc3OC)cc2c1`, which Potency is on record?
A: The Potency was active: 25.1 µM.

Q: How did the Potency turn out when `O=C(Cn1c(=O)c(CNc2ccccc2)cc2cc3c(cc21)OCCO3)Nc1ccccc1Cl` was run?
A: Its Potency is inconclusive: 44.7 µM [inhibitor, full curve, poor fit].

Q: With `O=C(O)CN1C(=O)/C(=C/c2ccc(-c3cccc(Cl)c3)o2)SC1=S` as the compound, how does the Potency read?
A: Its Potency is inconclusive: 1 µM [inhibitor, full curve].

Q: For `CN(C)c1ccc(N2C(=O)CSC2=S)cc1`, which Potency is on record?
A: Its Potency is inconclusive: 20 µM [inhibitor, partial curve, poor fit].

Q: With `CCOC(=O)c1nn(-c2ccc(C)c(C)c2)c(=O)c2c(N)scc12` as the compound, how does the Potency read?
A: Its Potency is inconclusive: 3.16 µM [inhibitor, full curve].

Q: Which Potency does the source give for `Cn1[nH]c(CSc2ccc(Cl)cc2)cc1=O` here?
A: Its Potency is inconclusive: 1.12 µM [inhibitor, full curve, poor fit].

Q: For `CC(/C=C1\SC(=S)N(NC(=O)c2cccc(O)c2)C1=O)=C\c1ccccc1`, which Potency is on record?
A: Its Potency is inconclusive: 5.01 µM [inhibitor, full curve, poor fit].

Q: How did the Potency turn out when `Cc1sc(N)c2c(=O)n(-c3ccccc3)ncc12` was run?
A: The Potency was inconclusive: 28.2 µM [inhibitor, partial curve].

Q: With `CCOC(=O)c1nn(-c2cccc(C(F)(F)F)c2)c(=O)c2c(N)scc12` as the compound, how does the Potency read?
A: Its Potency is active: 0.891 µM.
